Data from paper PMC5663462.
No constants are given. Whether binding was seen depends on the method and setting. Some results given as binding are weak or reduced against the parent protein; the word gives no strength. Tags and fused reporters may be left off the sequences shown.

Chains of the proteins cited; added tags and fusions are not shown. Residues count along the entry.
UniProt P19490, residues 19-907: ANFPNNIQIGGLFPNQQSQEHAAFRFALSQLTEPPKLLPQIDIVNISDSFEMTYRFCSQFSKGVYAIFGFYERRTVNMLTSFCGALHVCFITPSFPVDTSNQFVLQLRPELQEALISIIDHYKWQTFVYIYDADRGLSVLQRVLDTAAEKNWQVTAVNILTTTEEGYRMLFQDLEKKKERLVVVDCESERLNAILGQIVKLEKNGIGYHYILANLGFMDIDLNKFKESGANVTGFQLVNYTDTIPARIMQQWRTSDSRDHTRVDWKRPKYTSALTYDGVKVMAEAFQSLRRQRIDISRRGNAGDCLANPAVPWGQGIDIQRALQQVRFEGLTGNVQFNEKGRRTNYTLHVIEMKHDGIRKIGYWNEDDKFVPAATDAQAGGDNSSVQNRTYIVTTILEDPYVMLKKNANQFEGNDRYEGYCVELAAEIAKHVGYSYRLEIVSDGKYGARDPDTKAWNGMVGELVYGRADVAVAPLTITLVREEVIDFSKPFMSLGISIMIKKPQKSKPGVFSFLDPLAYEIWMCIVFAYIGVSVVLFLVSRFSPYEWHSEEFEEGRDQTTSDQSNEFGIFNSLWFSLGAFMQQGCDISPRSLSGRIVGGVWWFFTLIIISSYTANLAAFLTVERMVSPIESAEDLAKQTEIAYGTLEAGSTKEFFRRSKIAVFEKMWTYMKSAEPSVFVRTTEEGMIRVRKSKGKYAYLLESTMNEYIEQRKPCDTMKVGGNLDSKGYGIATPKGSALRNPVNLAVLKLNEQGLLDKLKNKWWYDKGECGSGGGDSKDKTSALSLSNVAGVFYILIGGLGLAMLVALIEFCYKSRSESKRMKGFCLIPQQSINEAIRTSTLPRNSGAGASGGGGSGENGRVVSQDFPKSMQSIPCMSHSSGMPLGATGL

Molecular target: GluA1 AMPA glutamate receptor subunit on retinal ganglion cell (RGC) neuron processes (rat (endogenous in RGC cultures)) (UniProt P19490)
Assay: fluorescence microscopy of Alexa 488-labelled protein bound to cultured neurons; 0.4 ug/ml (0.008 uM) NP1-Alexa 488 added to cultured rat RGCs for 24 h, alone or with 2.5 uM GluA1-Fab or Mut-Fab; cells fixed, surface NP1-Alexa 488 puncta counted; only the binder purified

binding: binds
B1: Alexa 488-tagged neuronal pentraxin 1 (NP1) (ligand, UniProt Q62443 23-432)
chain: QDFGPTRFICTSVPVDADMCAASVAAGGAEELRSNVLQLRETVLQQKETILSQKETIRELTTKLGRCESQSTLDSGPGEARSGGGRKQPGSGKNTMGDLSRTPAAETLSQLGQTLQSLKTRLENLEQYSRLNSSSQTNSLKDLLQSKIDDLERQVLSRVNTLEEGKGGPKNDTEERAKIESALTSLHQRISELEKGQKDNRPGDKFQLTFPLRTNYMYAKVKKSLPEMYAFTVCMWLKSSAAPGVGTPFSYAVPGQANELVLIEWGNNPMEILINDKVAKLPFVINDGKWHHICVTWTTRDGVWEAYQDGTQGGNGENLAPYHPIKPQGVLVLGQEQDTLGGGFDATQAFVGELAHFNIWDRKLTPGEVYNLATCSSKALSGNVIAWAESQIEIFGGATKWTFEACRQIN
modifications: Alexa Fluor 488 label (Invitrogen kit A20181)
